Data as given in patent US20190290614A1, “Methods for Reducing Recurrence of Tumors” (Beth Israel Deaconess Medical Center, Inc., priority 2016, published 2019).

System: Lewis Lung carcinoma (LLC)
Test: spontaneous LLC lung metastasis model after primary tumor resection (survival)
Format: in vivo, mice
Details: FR122047 20, TFAP 30, SC-560 30, indomethacin 3 mg/kg i.p.; celecoxib 60 mg/kg oral gavage; FIG. 1B
From the text: Doses were selected based on previous publications by the present inventors and others, and/or by analogy to the human dose.

COc1ccc(-n2nc(C(F)(F)F)cc2-c2ccc(Cl)cc2)cc1 [SC-560, 5-(4-Chlorophenyl)-1-(4-methoxyphenyl)-3-trifluoromethyl pyrazole]
mimicked the action of ketorolac in prolonging survival after primary LLC tumor resection: mimicked the action of ketorolac
